The results in this text go back to article doi:10.1101/2023.01.27.525918.

Construct, isoform or probe ends are uncertain for at least one entry. At least one verdict rests on a figure or table, not on a statement of the authors.

The data set deals with ZUP1 + RPA complex WT (RPA70/RPA32/RPA14). Kind of data set: SEC. As to conditions: ZUP1-RPA interaction maintained in presence of dT100.

As to “TTTTTTTTTTTTTTTTTTTTTTTTTTTTTTTTTTTTTTTTTTTTTTTTTTTTTTTTTTTTTTTTTTTTTTTTTTTTTTTTTTTTTTTTTTTTTTTTTTTT [dT100]”, the binding result is listed as “binds”.
